Residue numbers refer to the chain shown, from its start. Results are given in words; binding and its absence hold for the method and conditions named. Some binding calls cover weakened binding; strength is not graded here.
B1: M13 phage pKK93 displaying MICA α3 domain with loop 1 insert 3.2 (designed binder)
chain: TVPPMVNVTRTSRGDHPRTQVTCRASGFYPWNITLSWRQDGVSLSHDTQQWGDVLPDGNGTYQTWVATRICQGEEQRFTCYMEHSGNHSTHPVPSGK
notes: also called 1-3.2; not shown: C-terminal portion of M13 gene III protein, fused at codon position 198
B2: M13 phage pKK92 displaying MICA α3 domain with loop 1 insert 3.1 (designed binder)
chain: TVPPMVNVTSRGDHPRTQVTCRASGFYPWNITLSWRQDGVSLSHDTQQWGDVLPDGNGTYQTWVATRICQGEEQRFTCYMEHSGNHSTHPVPSGK
notes: also called 1-3.1; not shown: C-terminal portion of M13 gene III protein, fused at codon position 198
B3: M13 phage pKK94 displaying MICA α3 domain with loop 1 insert 3.3 (designed binder)
chain: TVPPMVNVTRVPRGDSDLTVTCRASGFYPWNITLSWRQDGVSLSHDTQQWGDVLPDGNGTYQTWVATRICQGEEQRFTCYMEHSGNHSTHPVPSGK
notes: also called 1-3.3; not shown: C-terminal portion of M13 gene III protein, fused at codon position 198
B4: M13 phage pKK98 displaying MICA α3 domain with loop 1 insert 5.3 (designed binder)
chain: B3 chain with R10H, V11L, P12A, S16D, D17L, L18T, T19Y
notes: also called 1-5.3; not shown: C-terminal portion of M13 gene III protein, fused at codon position 198
B5: M13 phage pKK136 displaying MICA α3 domain with loop 1 insert 5.1sp and loop 3 insert 3.2sp (designed binder)
chain: TVPPMVNVTSGGSGGGSVTRGDTFTQSSGGSGGGVTCRASGFYPWNITLSWRQDGVSLSHDTQQWGDVLPDGNGTYQTWVATRISGGSGGGSTSRGDHPRTQSGGSGGGCYMEHSGNHSTHPVPSGK
notes: also called 1-5.1sp/3-3.2sp; not shown: C-terminal portion of M13 gene III protein, fused at codon position 198
B6: M13 phage pKK139 displaying MICA α3 domain with loop 1 insert 5.1sp and loop 3 insert 5.1spNH (designed binder)
chain: B5 chain with T93V, S94T, H98T, P99F, R100T, T101Q, Q102S
notes: also called 1-5.1sp/3-5.1spNH; not shown: C-terminal portion of M13 gene III protein, fused at codon position 198
B7: M13 phage pKK138 displaying MICA α3 domain with loop 1 insert 5.1sp and loop 3 insert 5.3sp (designed binder)
chain: B5 chain with T93H, S94L, R95A, G96R, D97G, H98D, P99D, R100L, Q102Y
notes: also called 1-5.1sp/3-5.3sp; not shown: C-terminal portion of M13 gene III protein, fused at codon position 198
B8: soluble MICA generated from pKK50 (loop 3 insert extended 5.1sp) (designed binder)
chain: EPHSLRYNLTVLSWDGSVQSGFLTEVHLDGQPFLRCDRQKCRAKPQGQWAEDVLGNKTWDRETRDLTGNGKDLRMTLAHIKDQKEGLHSLQEIRVCEIHEDNSTRSSQHFYYDGELFLSQNLETKEWTMPQSSRAQTLAMNVRNFLKEDAMKTKTHYHAMHADCLQELRRYLKSGVVLRRTVPPMVNVTRSEASEGNITVTCRASGFYPWNITLSWRQDGVSLSHDTQQWGDVLPDGNGTYQTWVATRISGGSGGGSVTRGDTFTQSSGGSGGGCYMEHSGNHSTHPVPSGK
notes: From pSW276 (no N-terminal His tag, Lys125); secreted by 293T cells; also called 3-5.1sp
B9: soluble MICA generated from pKK51 (loop 3 insert extended 5.3sp) (designed binder)
chain: B8 chain with V258H, T259L, R260A, G261R, D262G, T263D, F264D, T265L, Q266T, S267Y
notes: From pSW276 (no N-terminal His tag, Lys125); secreted by 293T cells; also called 3-5.3sp
B10: soluble MICA generated from pKK52 (tight loop 1 insert T-3.1) (designed binder)
chain: HHHHHHEPHSLRYNLTVLSWDGSVQSGFLTEVHLDGQPFLRCDRQKCRAKPQGQWAEDVLGNKTWDRETRDLTGNGKDLRMTLAHIKDQKEGLHSLQEIRVCEIHEDNSTRSSQHFYYDGELFLSQNLETEEWTMPQSSRAQTLAMNVRNFLKEDAMKTKTHYHAMHADCLQELRRYLKSGVVLRRTVPPMVNTSRGDHPRTQCRASGFYPWNITLSWRQDGVSLSHDTQQWGDVLPDGNGTYQTWVATRICQGEEQRFTCYMEHSGNHSTHPVPSGK
notes: From pSW324 (from pKK34: His6, Glu125); secreted by 293T cells; also called 1-T-3.1
B11: soluble MICA generated from pKK55 (tight loop 1 insert T-5.1) (designed binder)
chain: B10 chain with T194V, S195T, H199T, P200F, R201T, T202Q, Q203S
notes: From pSW324 (from pKK34: His6, Glu125); secreted by 293T cells; also called 1-T-5.1
B12: soluble MICA generated from pKK54 (tight loop 1 insert T-3.3) (designed binder)
chain: B10 chain with T194R, S195V, R196P, G197R, D198G, H199D, P200S, R201D, T202L, Q203T
notes: From pSW324 (from pKK34: His6, Glu125); secreted by 293T cells; also called 1-T-3.3
B13: soluble MICA generated from pKK56 (tight loop 1 insert T-5.3) (designed binder)
chain: B10 chain with T194H, S195L, R196A, G197R, D198G, H199D, P200D, R201L, Q203Y
notes: From pSW324 (from pKK34: His6, Glu125); secreted by 293T cells; also called 1-T-5.3
B14: soluble MICA generated from pKK53 (tight loop 1 insert T-3.5) (designed binder)
chain: B10 chain with T194G, H199S, P200L, R201I, T202M, Q203H
notes: From pSW324 (from pKK34: His6, Glu125); secreted by 293T cells; also called 1-T-3.5

By UniProt entry, the sequences of proteins in these tests, tags left out. Where a name states a change or a piece, a line headed by the entry shows the natural chain unless it says otherwise.
UniProt P06756: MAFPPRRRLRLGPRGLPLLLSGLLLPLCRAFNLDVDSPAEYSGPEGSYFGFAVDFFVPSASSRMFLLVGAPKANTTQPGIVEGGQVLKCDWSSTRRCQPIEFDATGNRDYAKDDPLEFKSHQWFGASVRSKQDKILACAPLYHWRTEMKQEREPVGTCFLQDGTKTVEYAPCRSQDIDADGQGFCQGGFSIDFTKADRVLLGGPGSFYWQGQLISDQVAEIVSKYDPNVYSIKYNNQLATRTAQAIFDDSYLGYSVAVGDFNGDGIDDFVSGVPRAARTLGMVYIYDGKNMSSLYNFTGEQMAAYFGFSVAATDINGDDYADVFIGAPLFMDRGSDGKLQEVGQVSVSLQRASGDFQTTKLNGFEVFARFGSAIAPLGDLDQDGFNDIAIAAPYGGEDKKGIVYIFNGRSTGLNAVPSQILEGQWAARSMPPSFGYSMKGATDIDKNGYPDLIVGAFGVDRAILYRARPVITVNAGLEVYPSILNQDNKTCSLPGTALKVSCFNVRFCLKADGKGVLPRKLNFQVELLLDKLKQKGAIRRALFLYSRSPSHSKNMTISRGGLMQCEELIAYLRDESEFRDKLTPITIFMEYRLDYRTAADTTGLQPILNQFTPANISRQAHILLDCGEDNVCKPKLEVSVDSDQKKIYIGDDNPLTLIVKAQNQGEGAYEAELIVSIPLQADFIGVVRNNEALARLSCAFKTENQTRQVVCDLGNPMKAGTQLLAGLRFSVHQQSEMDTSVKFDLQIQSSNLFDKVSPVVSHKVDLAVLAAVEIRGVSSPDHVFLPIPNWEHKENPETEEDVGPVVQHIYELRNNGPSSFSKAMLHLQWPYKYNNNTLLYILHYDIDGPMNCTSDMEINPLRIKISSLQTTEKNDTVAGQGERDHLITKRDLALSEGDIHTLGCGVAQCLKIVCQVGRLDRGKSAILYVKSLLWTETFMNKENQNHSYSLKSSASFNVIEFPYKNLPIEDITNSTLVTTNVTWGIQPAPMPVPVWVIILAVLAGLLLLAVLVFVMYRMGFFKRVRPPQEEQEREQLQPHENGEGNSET

Each binder was assayed against T1, integrin αVβ3 (UniProt P06756 31-992; P05106 27-718) (assay: phage ELISA, coated integrin, anti-M13-HRP).
T1 construct: Coated on the ELISA plate
For B1, the binding was “binds”.
In the case of B2, the binding is reported as “binds”.
With B3 the binding was “binds”.
With B4 the binding was “binds”.
For B5, the binding was “binds”.
B6 was tested, and the binding was “binds”.
With B7 the binding was “binds”.

The binders below were run against T2, integrin αVβ5 (UniProt P06756 31-992; P18084 24-719) (assay: phage ELISA, coated integrin, anti-M13-HRP).
T2 construct: Coated on the ELISA plate
With B1 the binding was “binds”.
With B2 the binding was “binds”.
For B3, the binding was “binds”.
For B4, the binding was “binds”.
B5 was tested, and the binding was “binds”.
In the case of B6, the binding is reported as “binds”.
B7 was tested, and the binding was “binds”.

Each binder was assayed against T1, integrin αVβ3 (assay: ELISA, coated integrin, anti-MICA-HRP).
With B8 the binding was “binds”.
For B9, the binding was “binds”.
For B10, the binding was “binds”.
For B11, the binding was “binds”.
In the case of B12, the binding is reported as “binds”.
With B13 the binding was “binds”.
For B14, the binding was “binds”.

Each binder was assayed against T2, integrin αVβ5 (assay: ELISA, coated integrin, anti-MICA-HRP).
With B8 the binding was “binds”.
B9 was tested, and the binding was “binds”.
For B10, the binding was “binds”.
B11 was tested, and the binding was “binds”.
In the case of B12, the binding is reported as “binds”.
For B13, the binding was “binds”.
B14 was tested, and the binding was “binds”.

From US20150165065A1 (AVIDBIOTICS, published 2015)
